Positions count from the first letter of the chain named. Like-named read-outs stand apart in the source and are kept apart here. Results are given in words; binding and its absence hold for the method and conditions named. Binding seen in cells or lysates may run through a third protein. For part of these data: Binding calls can cover weak binding; strength is not graded here. Where a sequence is shown, tags or fusion partners need not be part of it.
Columns and labels:
Assay in all cases: co-IP
GFP-iASPP 1-290 = target: T1, GFP-iASPP 1-290 (UniProt Q8WUF5)
T1 sequence: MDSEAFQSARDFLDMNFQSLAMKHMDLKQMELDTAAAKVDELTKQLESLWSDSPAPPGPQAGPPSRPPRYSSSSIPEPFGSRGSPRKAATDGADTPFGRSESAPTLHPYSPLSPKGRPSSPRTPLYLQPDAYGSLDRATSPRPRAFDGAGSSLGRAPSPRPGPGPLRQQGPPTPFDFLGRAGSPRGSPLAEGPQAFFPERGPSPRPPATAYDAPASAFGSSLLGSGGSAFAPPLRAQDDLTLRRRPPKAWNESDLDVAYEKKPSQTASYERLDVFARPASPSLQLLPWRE

GFP-iASPP 1-599 = target: T2, GFP-iASPP 1-599 (UniProt Q8WUF5)
T2 sequence: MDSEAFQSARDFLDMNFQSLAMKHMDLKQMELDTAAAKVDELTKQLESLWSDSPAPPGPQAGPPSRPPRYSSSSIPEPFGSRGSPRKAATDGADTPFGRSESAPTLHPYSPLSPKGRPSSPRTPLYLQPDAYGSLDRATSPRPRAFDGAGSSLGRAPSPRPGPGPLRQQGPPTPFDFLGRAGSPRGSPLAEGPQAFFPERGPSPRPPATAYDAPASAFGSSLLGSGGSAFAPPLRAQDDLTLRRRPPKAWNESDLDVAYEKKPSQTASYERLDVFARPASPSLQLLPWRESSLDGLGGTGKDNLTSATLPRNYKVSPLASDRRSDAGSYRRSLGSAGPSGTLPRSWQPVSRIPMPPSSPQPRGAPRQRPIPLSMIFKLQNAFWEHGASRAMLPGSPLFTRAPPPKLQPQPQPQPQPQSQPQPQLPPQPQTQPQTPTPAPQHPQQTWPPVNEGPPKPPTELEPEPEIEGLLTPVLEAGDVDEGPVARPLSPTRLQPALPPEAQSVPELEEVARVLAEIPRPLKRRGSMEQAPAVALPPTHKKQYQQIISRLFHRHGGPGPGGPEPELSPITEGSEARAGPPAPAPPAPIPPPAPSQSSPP

[1] = target: T3, GFP-iASPP C-terminal region (Cter, 600-828) (UniProt Q8WUF5)
T3 sequence: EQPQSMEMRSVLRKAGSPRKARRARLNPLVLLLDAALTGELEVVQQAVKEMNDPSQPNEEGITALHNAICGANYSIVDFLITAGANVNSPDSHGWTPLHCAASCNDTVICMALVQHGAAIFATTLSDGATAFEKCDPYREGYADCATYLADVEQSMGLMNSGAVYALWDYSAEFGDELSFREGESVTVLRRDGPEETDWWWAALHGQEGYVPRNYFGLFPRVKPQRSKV

GFP-iASPP 1-628 = target: T4, GFP-iASPP 1-628 (UniProt Q8WUF5)
T4 sequence: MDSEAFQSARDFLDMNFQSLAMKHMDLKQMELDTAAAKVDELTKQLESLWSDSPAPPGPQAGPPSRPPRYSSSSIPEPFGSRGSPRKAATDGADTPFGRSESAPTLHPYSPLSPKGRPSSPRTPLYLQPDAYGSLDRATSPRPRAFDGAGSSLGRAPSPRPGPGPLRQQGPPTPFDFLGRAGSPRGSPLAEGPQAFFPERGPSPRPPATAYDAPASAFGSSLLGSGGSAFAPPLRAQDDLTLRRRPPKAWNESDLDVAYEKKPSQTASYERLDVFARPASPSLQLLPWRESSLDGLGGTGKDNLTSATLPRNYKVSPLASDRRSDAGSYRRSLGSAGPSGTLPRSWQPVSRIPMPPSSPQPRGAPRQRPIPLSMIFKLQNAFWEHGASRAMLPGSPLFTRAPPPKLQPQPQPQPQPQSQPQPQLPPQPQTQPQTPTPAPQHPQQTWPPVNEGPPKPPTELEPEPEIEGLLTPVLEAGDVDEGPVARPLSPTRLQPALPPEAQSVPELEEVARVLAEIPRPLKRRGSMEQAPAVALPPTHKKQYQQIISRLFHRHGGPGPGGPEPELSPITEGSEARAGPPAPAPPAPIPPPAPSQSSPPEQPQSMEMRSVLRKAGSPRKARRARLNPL

[2] = target: T5, GFP-iASPP Ank-SH3 (629-828) (UniProt Q8WUF5)
T5 sequence: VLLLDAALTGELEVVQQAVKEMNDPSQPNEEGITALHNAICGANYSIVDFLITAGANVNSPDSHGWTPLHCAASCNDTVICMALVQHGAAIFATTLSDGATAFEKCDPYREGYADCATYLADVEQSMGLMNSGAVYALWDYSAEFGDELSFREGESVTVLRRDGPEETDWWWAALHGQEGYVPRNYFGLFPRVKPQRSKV

GFP-iASPP-RARA = target: T6, GFP-iASPP-RARA (UniProt Q8WUF5)
T6 sequence: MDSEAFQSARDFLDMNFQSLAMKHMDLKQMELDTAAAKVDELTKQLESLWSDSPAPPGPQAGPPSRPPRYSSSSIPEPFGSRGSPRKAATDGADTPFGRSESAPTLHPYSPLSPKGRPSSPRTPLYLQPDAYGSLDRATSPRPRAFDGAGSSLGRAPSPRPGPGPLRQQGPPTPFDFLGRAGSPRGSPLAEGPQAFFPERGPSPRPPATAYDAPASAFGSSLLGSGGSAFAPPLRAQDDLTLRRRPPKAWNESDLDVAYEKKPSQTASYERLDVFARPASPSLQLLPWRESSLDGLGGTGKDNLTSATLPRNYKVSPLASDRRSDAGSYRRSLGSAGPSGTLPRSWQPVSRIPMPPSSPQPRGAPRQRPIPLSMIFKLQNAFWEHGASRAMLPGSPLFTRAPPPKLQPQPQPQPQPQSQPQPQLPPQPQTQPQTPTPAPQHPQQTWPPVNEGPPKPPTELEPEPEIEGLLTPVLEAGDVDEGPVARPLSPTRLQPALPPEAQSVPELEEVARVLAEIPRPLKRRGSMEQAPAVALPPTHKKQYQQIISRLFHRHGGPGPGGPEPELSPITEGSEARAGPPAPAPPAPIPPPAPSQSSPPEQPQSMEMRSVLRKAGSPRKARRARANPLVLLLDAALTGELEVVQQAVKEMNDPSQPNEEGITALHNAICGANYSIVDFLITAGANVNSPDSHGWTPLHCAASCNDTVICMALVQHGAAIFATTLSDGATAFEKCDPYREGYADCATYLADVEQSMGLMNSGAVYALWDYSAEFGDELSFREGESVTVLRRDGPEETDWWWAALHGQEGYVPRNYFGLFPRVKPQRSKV

[3] = target: T3, GFP-iASPP C-terminal region (Cter, 600-828); remark: listed apart in the source
[4] = target: T7, GFP-iASPP SH3 domain alone (UniProt Q8WUF5)
T7 sequence: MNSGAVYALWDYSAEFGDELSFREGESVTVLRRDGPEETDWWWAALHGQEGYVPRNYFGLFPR

GFP-iASPP (wild type) = target: T8, GFP-iASPP (wild type) (UniProt Q8WUF5)
T8 sequence: T6 sequence with A625L

Measured: binding

PP1 (endogenous) (enzyme)
binds: [1] | [3] | GFP-iASPP (wild type)
binds weakly: [2]
no binding: all other assays above

Source: article doi:10.1101/870998
